According to paper PMC8917221:
No constants are given. Whether binding was seen depends on the method and setting. Binding seen in cells or lysates may run through a third protein. A yes stands for co-enrichment or nearness to the bait. Other partners may have been found. For part of these data: A no says only that the protein was not detected with the bait.

Legend:
[1] = target: Bmc1 PrA (S. pombe Bin3/MePCE homolog Bmc1, protein A-tagged at the genomic locus) (S. pombe); assay: affinity purification with mass spectrometry; Bmc1 PrA immunoprecipitated from S. pombe native protein extract on rabbit IgG Dynabeads; eluted with 0.5 M NH4OH, tryptic digest, LC-MS/MS; untagged control
[2] = target: Bmc1 PrA (S. pombe Bin3/MePCE homolog Bmc1, protein A-tagged at the genomic locus) (S. pombe); assay: affinity purification with mass spectrometry; as a1, but the native protein extract pre-treated with 0.625 U/μL benzonase at 37 °C for 30 min

| binding [1] | binding [2] | Binder |
| --- | --- | --- |
| no binding | – | Tgs1 (TMG capping enzyme) (enzyme, UniProt Q09814 1-239) MNKNEELDEDELLKKCIICPPVPKALKKYWNNRYNLFSRFDEGIWLDYQSWYSVTPEKVAVAIAKSVVDFIQPELIIDAFSGCGGNTIQFAKYCPVISIEIDPIKIAMAKHNLEIYGIPSSRVTFIQGDVLDTFKSLQFAKDYRSLVFMSPPWGGPSYSGKTVYSLNDLNPYAFDVLFKEATRISPYVAAFLPRNTDVKELAAYGSIHNKPYITNFLFEGYAKAICCYFNMKGAIARKI |
| binds | binds | Pof8 (LARP7 family member), endogenous, found by mass spectrometry (protein, UniProt O13795 1-402) MFVPRQLNVRKIKAFTGKENNSIADGNNNKLKDEHYKHNEASKEPSHSISGGLMLNQQDRQLIEPLNPDFLSAVDSILEIYFHRERQKEKVHLAFLIQQDDFWKGIRPNPTQNNLKYALSYVTNALFHFDNSSHMVIRNENIVLPLDIPLYDRIIYVEPVPATLSNKSLLLAGKLRKYLKEFLPYVDAIGTPEGYAFVILYKKVDQSALSKLPVPPGWVLLTRKEWTNREEKYFENQLHLVKASSSDVSNSSNSFPENRYPKLTKVEKQMTKSVSKTSQTDKDEDNLDFTKNLLTRIKNLHPLTNKSTIHSLLSYVFSRQTQNIACEPMYIDYRKDETEAIIRWKTPLHAETCINAFRTQERKQNSHDDIRAHRKKGSSRPFLIAELITGEEEKNYWRMLKK |
